Laboratory results: US8969515B2, “Pharmaceutical composition for treating hyperproliferative diseases” (OOO “MetaMax”, priority 2011, dated 2015)

System: HEK293 cell line, non-synchronized and synchronized
Experiment: Effect of pAntp chimeric peptide versions on cell cycle, HEK293
Type: cell-based, human
Details: 40 μM
Description: FIG. 22. Effect of chimeric peptide pAntp containing a p16INK4a fragment, on the cell cycle. A—non-synchronized cell line HEK293, B—cell line HEK293 synchronized in S-phase. Peptide concentration is 40 µM. The peptides are pAntp and three further peptides 1-p16, 2-p16, and 3-p16, wherein peptides 1-p16 and 2-p16 are synthetic peptides differing by the location of the 20 amino acids fragment of p16 relative to pAntp; and peptide 3-p16 is a genetically engineered peptide comprising a 50 amino acids insert of protein Antp.
We used three versions of the chimeric peptide containing p16INK4a active center and pAntp vector. These chimeric peptides differ by location of the active center relative to N-C termini of the molecule and the presence of an insertion of 44 amino acids ([…], SEQ ID NO: 9) for peptide 3 produced by genetic engineering method (Table 1).
In the study of the properties of these peptides we also investigated synchronized and nonsynchronized cell cultures. In a synchronized culture, the peptide was added at the time of sync block removal and in the nonsynchronized at a monolayer density (for adhesion cultures) of ~50%.

B1: RGSDAAREGFLDTLVVLHRAGARRQIKIWFQNRRMKWKKSERKRGRQTYTRYQTLELEKEFHFNRYLTRRRRIEIAHALCLTE (protein, listed as Homo Sapiens)
chain: RGSDAAREGFLDTLVVLHRAGARRQIKIWFQNRRMKWKKSERKRGRQTYTRYQTLELEKEFHFNRYLTRRRRIEIAHALCLTE
modifications: pANTp_p16(3), chimeric peptide
How did the “changes of the cell cycle phases” value (synchronized and nonsynchronized cells) turn out when B1 was run?
Its value is “marked reduction in S-phase”.

And the “anti-proliferative effect on cells” value (summary of HEK293 and A549 experiments)?
Its value is “has an antiproliferative effect”.
